Patent US7648824B2, “Method of sequencing DNA” (Qiagen GmbH, priority 2000, dated 2010)

Test system: pUC19-derived template
Test: PPi-based DNA sequencing of pUC19-derived template with and without Rp-dATPαS
Format: biochemical
Conditions: stepwise nucleotide addition, 10 U (exo-) Klenow, 40 mU apyrase, with dCTP, dGTP and dTTP

SMILES	signal quality and read-length
Nc1ncnc2c1ncn2[C@H]1C[C@H](O)[C@@H](COP(O)(=S)OP(=O)(O)OP(=O)(O)O)O1 (single isomer, unassigned) [Sp isomer]	a longer read-length is obtained
Nc1ncnc2c1ncn2[C@H]1C[C@H](O)[C@@H](COP(O)(=S)OP(=O)(O)OP(=O)(O)O)O1 (stereo partly drawn) [dATPαS, deoxyadenosine α-thiotriphosphate]	signal quality gradually deteriorates
